According to patent JP2023110925A:
These are yes or no findings as the source states them, for the method shown. Some binding calls cover weakened binding; strength is not graded here.

By UniProt entry, the sequences of proteins in these tests, tags left out. Residues count along the entry.
UniProt P05067, residues 672-713: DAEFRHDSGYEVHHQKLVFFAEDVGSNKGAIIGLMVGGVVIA

How the values were obtained:
[1] = target: アミロイドβ (antigen of the amyloid β ELISA) (UniProt P05067); assay: amyloid β ELISA, purified antibody
[2] = target: AD疾患患者由来の脳の斑 (amyloid in plaques of human brain sections) (human) (UniProt P05067); assay: immunohistochemistry on formic acid treated paraffin sections of human brain
ペプチド12(Aβのaa12-20) = target: T1, ペプチド12(Aβのaa12-20); assay: peptide ELISA, biotinylated peptides on streptavidin plates, hC2 at 200 ng/ml
T1 sequence (peptide, biotinylated): VHHQKLVFF

ペプチド16(Aβのaa 16-24) = ペプチド16(Aβのaa 16-24) (UniProt P05067); assay: as above
ペプチド14(Aβのaa 14-22) = ペプチド14(Aβのaa 14-22) (UniProt P05067); assay: as above
ペプチド15(Aβのaa 15-23) = ペプチド15(Aβのaa 15-23) (UniProt P05067); assay: as above
[3] = target: アミロイドβ (antigen of the amyloid β ELISA) (UniProt P05067); assay: amyloid β ELISA, conditioned medium of transient transfection

B1: C2 HuVH2/HuVK1 (purified) (antibody, human IgG4 S228P, kappa, name in Kabat numbering, V domains shown)
VH: EVQLVESGGGLVQPGGSLRLSCAASGFTFSSYGMSWVRQAPGKGLEWVASINSNGGSTYYPDSVKGRFTISRDNAKNSLYLQMNSLRAEDTAVYYCASGDYWGQGTTVTVSS
VL: DIVMTQSPLSLPVTPGEPASISCRSSQSLVYSNGDTYLHWYLQKPGQSPQLLIYKVSNRFSGVPDRFSGSGSGTDFTLKISRVEAEDVGVYYCSQSTHVPWTFGQGTKVEIKR
In the case of B1, the binding [1] is reported as “binds”.

B2: C2 ChVH AF/ChVK抗体 (purified from NS0) (antibody, human IgG4 S228P, kappa, V domains shown)
VH: EVQLVESGGGLVQPGGSLKLSCAASGFTFSSYGMSWVRQTPDKRLELVASINSNGGSTYYPDSVKGRFTISRDNAKNTLYLQMSSLKSEDTAMYYCASGDYWGQGSTLTVSS
VL: DVVMTQTPLSLPVSLGDQASISCRSSQSLVYSNGDTYLHWYLQKPGQSPKLLIYKVSNRFSGVPDRFSGSGSGTDFTLKISRVEAEDLGVYFCSQSTHVPWTFGGGTKLEIKR
B2 was tested, and the binding [2] was “binds” and the binding [1] was “binds”.

B3: ヒト化抗ヒトアミロイドβモノクローナル抗体hC2 (antibody, human IgG4 S228P, kappa, V domains shown)
VH: EVQLVESGGGLVQPGGSLRLSCAASGFTFSSYGMSWVRQAPGKGLELVASINSNGGSTYYPDSVKGRFTISRDNAKNSLYLQMNSLRAEDTAVYYCASGDYWGQGTTVTVSS
VL: DIVMTQSPLSLPVTPGEPASISCRSSQSLVYSNGDTYLHWYLQKPGQSPQLLIYKVSNRFSGVPDRFSGSGSGTDFTLKISRVEAEDVGVYYCSQSTHVPWTFGQGTKVEIKR
With B3 the binding (ペプチド12(Aβのaa12-20)) was “binds”, the binding (ペプチド16(Aβのaa 16-24)) was “binds” and the binding (ペプチド14(Aβのaa 14-22)) was “binds”. For the same binder, the binding (ペプチド15(Aβのaa 15-23)) was “binds”.

B4: C2 HuVH AF バージョン2 + キメラC2カッパ鎖 (transient) (antibody, name in Kabat numbering, V domains shown)
VH: EVQLVESGGGLVQPGGSLRLSCAASGFTFSSYGMSWVRQAPGKGLEWVASINSNGGSTYYPDSVKGRFTISRDNAKNSLYLQMNSLRAEDTAVYYCASGDYWGQGTTVTVSS
VL: DVVMTQTPLSLPVSLGDQASISCRSSQSLVYSNGDTYLHWYLQKPGQSPKLLIYKVSNRFSGVPDRFSGSGSGTDFTLKISRVEAEDLGVYFCSQSTHVPWTFGGGTKLEIK
B4 was tested, and the binding [3] was “binds”.
